Measurements reported in PubChem BioAssay AID1259308 (NCATS, 2017)
The whole screen tested about 59,000 reagents; this is a part drawn at random. About 1,510 of all reagents (2.6%) were called active. 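Calls use total luciferase alone and ignore viability, so some active siRNAs may act by altering cell number.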 Reagents against one gene are numbered here. Reagent sequences are not shown.

Purpose: 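Genes whose loss raises luciferase production in HEK293 cells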 (primary screen)
Cell system: human HEK293 embryonic kidney cells stably expressing firefly luciferase (HEK-CMV-Luc2-Hygro)
Reagent: single siRNA against human genes, 0.8 pmol siRNA per well
Duration: 72 h
Measured: 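Luciferase light (ONE-Glo) measured on one replicate plate set and viability (CellTiter-Glo) on the other, scaled to a negative control siRNA, with robust z-scores and luciferase per cell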
Direction: total luciferase, z-score and total luciferase, % of control: higher = more reporter protein produced; luciferase per cell, z-score: higher = more reporter output per viable cell; viable cells, % of control: higher = more viable cells
Call rule: 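An siRNA counts as active if its total luciferase robust z-score exceeds 3; genes with two or more such siRNAs out of three were retested with fresh siRNAs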
Meaning of the calls: active = raised luciferase; inactive = no rise

no.	Gene	reagent no.	total luciferase, z-score	total luciferase, % of control	luciferase per cell, z-score	viable cells, % of control	Call
1	GJA9 (gap junction protein alpha 9)	1	1.36	109	0.555	105	inactive
2	GJA9 (gap junction protein alpha 9)	2	-0.805	65.9	-1.2	101	inactive
3	GJA9 (gap junction protein alpha 9)	3	-1.47	52.6	-1.09	78.2	inactive
4	GALNT12 (polypeptide N-acetylgalactosaminyltransferase 12)	1	-1.72	47.6	0.115	51.6	inactive
5	GALNT12 (polypeptide N-acetylgalactosaminyltransferase 12)	2	-0.0693	80.5	-0.5	103	inactive
6	GALNT12 (polypeptide N-acetylgalactosaminyltransferase 12)	3	3.3	148	2.52	84.8	active
7	TMEM184C (transmembrane protein 184C)	1	-0.36	74.7	-0.123	86.2	inactive
8	TMEM184C (transmembrane protein 184C)	2	-0.176	78.4	-0.254	93.7	inactive
9	TMEM184C (transmembrane protein 184C)	3	-0.636	69.2	-0.993	100	inactive
10	TMEM33 (transmembrane protein 33)	1	1.51	112	1.58	82.6	inactive
11	TMEM33 (transmembrane protein 33)	2	0.571	93.2	0.586	89.3	inactive
12	TMEM33 (transmembrane protein 33)	3	2.5	132	1.87	89.9	inactive
13	MYL7 (myosin light chain 7)	1	0.413	90.1	1.42	69.3	inactive
14	MYL7 (myosin light chain 7)	2	0.888	99.5	1.76	70	inactive
15	MYL7 (myosin light chain 7)	3	-2.14	39.3	-0.915	55.9	inactive
16	FUT3 (fucosyltransferase 3 (Lewis blood group))	1	-1.41	53.8	-1.33	85.4	inactive
17	FUT3 (fucosyltransferase 3 (Lewis blood group))	2	-0.218	77.6	-0.375	95.7	inactive
18	FUT3 (fucosyltransferase 3 (Lewis blood group))	3	-1.83	45.4	-1.06	67	inactive
19	LINC00520 (long independently transcribed non-coding RNA 520)	1	-0.711	67.7	0.496	66.4	inactive
20	LINC00520 (long independently transcribed non-coding RNA 520)	2	-0.568	70.6	0.684	65.9	inactive
21	LINC00520 (long independently transcribed non-coding RNA 520)	3	0.421	90.3	0.187	96	inactive
22	EIF3C (eukaryotic translation initiation factor 3 subunit C)	1	-1.95	43.1	-1.59	73.3	inactive
23	EIF3C (eukaryotic translation initiation factor 3 subunit C)	2	-2.62	29.7	-2.5	64.2	inactive
24	EIF3C (eukaryotic translation initiation factor 3 subunit C)	3	-1.55	51.1	-1.54	85.6	inactive
25	ANKRD2 (ankyrin repeat domain 2)	1	-0.241	77.1	-0.754	105	inactive
26	ANKRD2 (ankyrin repeat domain 2)	2	0.451	90.9	0.418	91	inactive
27	ANKRD2 (ankyrin repeat domain 2)	3	1.43	110	0.467	109	inactive
28	UNC79 (unc-79 subunit of NALCN channel complex)	1	0.665	95.1	1.11	79.4	inactive
29	UNC79 (unc-79 subunit of NALCN channel complex)	2	0.752	96.8	0.401	97.4	inactive
30	UNC79 (unc-79 subunit of NALCN channel complex)	3	-0.264	76.6	-0.189	90	inactive
31	SHPRH (SNF2 histone linker PHD RING helicase)	1	-0.502	71.9	-0.264	86.1	inactive
32	SHPRH (SNF2 histone linker PHD RING helicase)	2	-0.975	62.5	-1.22	96.2	inactive
33	SHPRH (SNF2 histone linker PHD RING helicase)	3	-0.216	77.6	-0.161	90.4	inactive
34	RABGAP1L (RAB GTPase activating protein 1 like)	1	1.28	107	1.08	90.3	inactive
35	RABGAP1L (RAB GTPase activating protein 1 like)	2	2.03	122	1.87	83.6	inactive
36	RABGAP1L (RAB GTPase activating protein 1 like)	3	2.51	132	1.6	96.6	inactive
37	EGR4 (early growth response 4)	1	0.0546	83	0.123	89.8	inactive
38	EGR4 (early growth response 4)	2	0.492	91.7	0.375	92.8	inactive
39	EGR4 (early growth response 4)	3	-0.678	68.4	-1.26	106	inactive
40	KIAA0319L (KIAA0319 like)	1	-1.28	56.3	-1.46	92.5	inactive
41	KIAA0319L (KIAA0319 like)	2	-0.298	76	-0.576	98.8	inactive
42	KIAA0319L (KIAA0319 like)	3	0.181	85.5	0.672	80	inactive
43	TMEM256P1 (transmembrane protein 256 pseudogene 1)	1	0.0819	83.5	-0.434	105	inactive
44	TMEM256P1 (transmembrane protein 256 pseudogene 1)	2	-0.947	63.1	-0.879	88.8	inactive
45	TMEM256P1 (transmembrane protein 256 pseudogene 1)	3	0.726	96.3	0.143	104	inactive
46	EDNRA (endothelin receptor type A)	1	1.57	113	1.52	84.8	inactive
47	EDNRA (endothelin receptor type A)	2	-1.26	56.8	-1.57	96	inactive
48	EDNRA (endothelin receptor type A)	3	-0.918	63.6	-1.31	100	inactive
49	RASAL3 (RAS protein activator like 3)	1	-2.11	40	-2.77	92.6	inactive
50	RASAL3 (RAS protein activator like 3)	2	0.789	97.6	0.373	98.8	inactive
51	RASAL3 (RAS protein activator like 3)	3	-0.0603	80.7	1.2	65.7	inactive
52	CBLN3 (cerebellin 3 precursor)	1	-0.276	76.4	-0.000251	85.4	inactive
53	CBLN3 (cerebellin 3 precursor)	2	1.28	107	1.22	86.9	inactive
54	CBLN3 (cerebellin 3 precursor)	3	2.64	134	1.23	109	inactive
55	CCKAR (cholecystokinin A receptor)	1	0.953	101	0.602	96.2	inactive
56	CCKAR (cholecystokinin A receptor)	2	-0.396	74	-0.777	101	inactive
57	CCKAR (cholecystokinin A receptor)	3	-1.61	49.8	-1.51	82.8	inactive
